Literature values as cited in US20070141618A1, “GENES EXPRESSED IN BREAST CANCER AS PROGNOSTIC AND THERAPEUTIC TARGETS” (priority 2001, published 2007).
For at least one compound, name, drawing or mass did not settle the structure.

Tested on: TFF1
Conditions: reportedly; Prud'homme et al. 1985; cited from earlier work

| SMILES | effect on TFF1 mRNA levels |
| --- | --- |
| C[C@@H]1C[C@H]2[C@@H]3CCC4=CC(=O)C=C[C@]4(C)[C@@]3(F)[C@@H](O)C[C@]2(C)[C@@]1(O)C(=O)CO [dexamethasone] | not |
| C[C@]12CC[C@@H]3c4ccc(O)cc4CC[C@H]3[C@@H]1CC[C@@H]2O [estradiol] | increased |
